Literature values, collected in patent publication US5594009A, “Fused pyrrolocarbazoles” (priority 1995, dated 1997).

Test system: transcription of IFNα genes
Settings: not associated with the inhibition of protein kinase C; cited from earlier work

CN[C@@H]1C[C@H]2O[C@@](C)([C@@H]1OC)n1c3ccccc3c3c4c(c5c6ccccc6n2c5c31)C(=O)NC4 [staurosporine]
inhibition of transcription of IFNα genes: inhibit the transcription of IFNα genes
